Measurements from PMC3698095.
No constants are given. Whether binding was seen depends on the method and setting. Binding seen in cells or lysates may run through a third protein. Some entries that bind do so weakly or less than the wild type. One block for each molecule: values may come before it.

Protein sequences, listed by entry. Tags and fused reporters are not part of them.
UniProt P10417: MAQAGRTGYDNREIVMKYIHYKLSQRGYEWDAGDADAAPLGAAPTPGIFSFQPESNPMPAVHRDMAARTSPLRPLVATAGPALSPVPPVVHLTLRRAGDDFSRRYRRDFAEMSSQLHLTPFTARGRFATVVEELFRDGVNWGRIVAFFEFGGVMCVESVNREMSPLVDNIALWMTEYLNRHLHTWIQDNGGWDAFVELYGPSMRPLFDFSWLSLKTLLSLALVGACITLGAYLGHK

Assays:
[1] = molecular target: Bim (mouse (endogenous in mouse liver)) (UniProt O54918); assay: co-IP; immunoprecipitation with Bim antibody (2 µg/ml, 4°C, 3 h) from 400 µg crude liver protein in RIPA lysis buffer, protein-A/G-Sepharose, four RIPA washes; blots for Bcl2, Bcl-xL, Bax; HS-Csn8KO and CTL mouse livers
[2] = molecular target: Bcl2 (mouse (endogenous in mouse liver)) (UniProt P10417); assay: co-IP; immunoprecipitation with Bcl2 antibody (2 µg/ml, 4°C, 3 h) from 400 µg crude liver protein in RIPA lysis buffer, protein-A/G-Sepharose, four RIPA washes; blots for Bcl2, Bim, Bax; HS-Csn8KO and CTL mouse livers
[3] = molecular target: T1, Bim (mouse (endogenous in mouse liver)), O54918; assay: co-IP; immunoprecipitation with Bim antibody (2 µg/ml, 4°C, 3 h) from 400 µg crude liver protein in RIPA lysis buffer, protein-A/G-Sepharose, four RIPA washes; blots for Bcl2, Bcl-xL, Bax; HS-Csn8KO and CTL mouse livers; settings: remark: other sources report otherwise
T1 chain: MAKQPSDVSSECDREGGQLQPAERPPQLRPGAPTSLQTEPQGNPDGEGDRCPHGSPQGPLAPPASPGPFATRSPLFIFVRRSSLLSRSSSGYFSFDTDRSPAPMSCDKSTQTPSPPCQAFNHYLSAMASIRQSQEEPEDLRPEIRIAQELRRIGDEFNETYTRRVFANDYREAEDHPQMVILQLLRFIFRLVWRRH

- binding [1]: binds
Molecule: Bcl2 (from UniProt P10417 1-236)

- binding [2]: binds
Molecule: extra-long form of Bim (Bim-EL) (from UniProt O54918-1 1-196)

- binding [3]: no binding
B1: Bcl-xL, Q64373-1 1-233 (protein)
chain: MSQSNRELVVDFLSYKLSQKGYSWSQFSDVEENRTEAPEETEAERETPSAINGNPSWHLADSPAVNGATGHSSSLDAREVIPMAAVKQALREAGDEFELRYRRAFSDLTSQLHITPGTAYQSFEQVVNELFRDGVNWGRIVAFFSFGGALCVESVDKEMQVLVSRIASWMATYLNDHLEPWIQENGGWDTFVDLYGNNAAAESRKGQERFNRWFLTGMTVAGVVLLGSLFSRK
